These are yes or no findings as the source states them, for the method shown. In cells and extracts the contact can be indirect. Some binding calls cover weakened binding; strength is not graded here.
Assays:
Experiment in all cases: co-IP; cells lysed with cold IP-lysis buffer (50 mM Tris-HCl, 150 mM NaCl, 2 mM EDTA, 0.5% NP40, pH 7.5) with 1 mM PMSF for 30 min; as described in ref. 16
[1] = target: IRE1α (as used in the co-immunoprecipitation) (human) (UniProt O75460)
[2] = target: IRE1α RNase domain (828 aa-977 aa) (human) (UniProt O75460)
[3] = target: IRE1α kinase domain (524 aa-827 aa) (human) (UniProt O75460)
[4] = target: phosphorylated IRE1α (p-IRE1α) (human) (UniProt O75460)

Amino acid sequences for entries named in this document (tags omitted). A change or cut given only in a name is not applied to a line headed by its entry. Residues count along the entry.
UniProt O75460: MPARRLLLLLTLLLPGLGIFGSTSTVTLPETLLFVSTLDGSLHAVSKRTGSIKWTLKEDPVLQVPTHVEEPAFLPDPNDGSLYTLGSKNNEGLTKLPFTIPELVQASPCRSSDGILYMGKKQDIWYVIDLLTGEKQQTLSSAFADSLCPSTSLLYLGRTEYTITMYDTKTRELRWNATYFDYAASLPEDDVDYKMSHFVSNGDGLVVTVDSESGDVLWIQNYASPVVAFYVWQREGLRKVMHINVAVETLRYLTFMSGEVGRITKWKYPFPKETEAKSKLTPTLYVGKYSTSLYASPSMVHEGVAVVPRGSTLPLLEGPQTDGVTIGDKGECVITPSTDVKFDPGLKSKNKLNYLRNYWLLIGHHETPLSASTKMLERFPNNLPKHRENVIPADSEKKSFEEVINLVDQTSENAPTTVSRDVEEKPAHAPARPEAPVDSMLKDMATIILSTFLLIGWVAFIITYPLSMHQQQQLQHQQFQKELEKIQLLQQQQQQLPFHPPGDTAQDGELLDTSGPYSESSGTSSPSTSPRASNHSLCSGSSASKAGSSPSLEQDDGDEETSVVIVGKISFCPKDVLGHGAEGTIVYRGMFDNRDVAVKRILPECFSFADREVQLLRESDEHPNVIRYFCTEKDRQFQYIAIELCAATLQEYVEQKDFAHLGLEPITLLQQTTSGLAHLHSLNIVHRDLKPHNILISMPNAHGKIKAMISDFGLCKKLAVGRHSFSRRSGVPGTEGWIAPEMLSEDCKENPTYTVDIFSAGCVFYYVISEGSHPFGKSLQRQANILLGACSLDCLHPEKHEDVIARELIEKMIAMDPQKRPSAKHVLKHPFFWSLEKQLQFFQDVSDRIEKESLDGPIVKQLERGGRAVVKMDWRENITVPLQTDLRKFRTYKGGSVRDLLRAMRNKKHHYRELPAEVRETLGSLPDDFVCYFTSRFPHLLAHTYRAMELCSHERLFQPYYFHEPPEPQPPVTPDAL
phosphorylated IRE1α (p-IRE1α): residues 19-977 of O75460
IRE1α kinase domain (524 aa-827 aa): residues 524-827 of O75460
IRE1α RNase domain (828 aa-977 aa): residues 828-977 of O75460
UniProt P28799, residues 18-593: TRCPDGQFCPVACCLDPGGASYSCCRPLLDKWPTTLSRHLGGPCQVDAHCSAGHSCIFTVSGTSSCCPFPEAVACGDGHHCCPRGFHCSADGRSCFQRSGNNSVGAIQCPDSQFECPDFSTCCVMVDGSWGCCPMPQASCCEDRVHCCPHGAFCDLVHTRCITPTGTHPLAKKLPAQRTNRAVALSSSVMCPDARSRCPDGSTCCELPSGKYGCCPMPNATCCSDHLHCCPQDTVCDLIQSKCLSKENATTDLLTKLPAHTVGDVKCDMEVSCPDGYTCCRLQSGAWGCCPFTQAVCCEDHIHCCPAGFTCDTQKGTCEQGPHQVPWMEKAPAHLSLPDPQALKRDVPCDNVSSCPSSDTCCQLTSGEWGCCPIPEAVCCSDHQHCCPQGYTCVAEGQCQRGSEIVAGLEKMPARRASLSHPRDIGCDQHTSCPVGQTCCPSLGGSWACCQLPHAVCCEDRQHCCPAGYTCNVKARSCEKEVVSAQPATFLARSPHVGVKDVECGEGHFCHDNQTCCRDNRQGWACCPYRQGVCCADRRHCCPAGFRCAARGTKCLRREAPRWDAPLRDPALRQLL

binding [1]: binds
binding [2]: no binding
binding [3]: binds
binding [4]: binds
Substance: progranulin (PGRN) (as used in the co-immunoprecipitations) (from UniProt P28799 18-593)

Source: paper PMC10689778
